Data as given in PubChem BioAssay AID1159578 (Peter MacCallum Cancer Centre, 2015).

- Screen: 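siRNA pools altering how lymphatic endothelial cells close a scratch wound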 (primary screen)
- System: human lymphatic endothelial cells
- Reagents: siRNA pool against human genes, 40 nM
- Timing: 48 h after transfection
- Detection: 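Cells stained with dye and imaged after a scratch; covered wound area and nuclei counted, duplicates averaged, migration set against mock wells and turned into a robust z-score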
- Reading the numbers: migration robust z-score: higher = faster migration into the scratch; migration relative to mock: higher = more scratch area covered than mock; nuclei per well: higher = more cells in the well
- Rule for the call: 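Migration changed when robust z exceeds 2 or falls below -2 and mean nuclei number is at least 3300; otherwise not called changed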
- Meaning of the calls: active = migration changed; inactive = no migration change, or too few cells
The whole screen tested about 18,000 reagents; below is a part drawn at random. About 1,030 of them (5.7%) were called active. 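Inactive calls also include pools with fewer than 3300 nuclei, whose migration was not assessed.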 Raw values are not corrected between plates. A number with no mark means an inactive call. Reagents against one gene are numbered here. Reagent sequences are not shown.

gene,reagent,migration robust z-score,migration class with cell-count check,migration relative to mock,"nuclei per well, duplicate mean"
TOR1AIP2,1,-1.74,migration z between -2 and 2; enough cells,0.44,5514
TOR1AIP2,2,-0.88,migration z between -2 and 2; enough cells,0.66,5750
OR4K17,1,-0.03,migration z between -2 and 2; enough cells,0.88,6564
CBR4,1,0.21,migration z between -2 and 2; enough cells,0.84,6298
DDX56,1,-0.04,migration z between -2 and 2; enough cells,0.88,5614
MFRP,1,-0.02,migration z between -2 and 2; enough cells,0.88,5582
UNC119B,1,0.14,migration z between -2 and 2; enough cells,0.92,5848
INTS3,1,-1.27,migration z between -2 and 2; enough cells,0.55,5322
PPIC,1,-1.53,migration z between -2 and 2; enough cells,0.51,3550
DSCR9,1,0.02,migration z between -2 and 2; enough cells,0.9,6386
NPR3,1,0.98,migration z between -2 and 2; enough cells,1,6164
NPR3,2,0.3,migration z between -2 and 2; enough cells,0.97,5436
B4GALT4,1,0.44,migration z between -2 and 2; enough cells,0.89,6753
KDM5D,1,0.75,migration z between -2 and 2; enough cells,0.95,5764
MAGEB6,1,1.15,migration z between -2 and 2; enough cells,1.18,5610
CCDC68,1,1.49,migration z between -2 and 2; enough cells,1.27,5465
TEX44,1,0.38,migration z between -2 and 2; enough cells,0.99,5351
ZNF117,1,-3.37,under 3300 nuclei; migration not judged,-0.01,2460
H2AC12,1,0.8,migration z between -2 and 2; enough cells,1.09,5919
ADIG,1,0.04,migration z between -2 and 2; enough cells,0.9,5842

In a second layout: results already given.
{"gene": "NPR3", "reagent": 2, "migration robust z-score": 0.3, "migration class with cell-count check": "migration z between -2 and 2; enough cells", "migration relative to mock": 0.97, "nuclei per well, duplicate mean": 5436}
{"gene": "B4GALT4", "reagent": 1, "migration robust z-score": 0.44, "migration class with cell-count check": "migration z between -2 and 2; enough cells", "migration relative to mock": 0.89, "nuclei per well, duplicate mean": 6753}
{"gene": "KDM5D", "reagent": 1, "migration robust z-score": 0.75, "migration class with cell-count check": "migration z between -2 and 2; enough cells", "migration relative to mock": 0.95, "nuclei per well, duplicate mean": 5764}
{"gene": "MAGEB6", "reagent": 1, "migration robust z-score": 1.15, "migration class with cell-count check": "migration z between -2 and 2; enough cells", "migration relative to mock": 1.18, "nuclei per well, duplicate mean": 5610}
{"gene": "CCDC68", "reagent": 1, "migration robust z-score": 1.49, "migration class with cell-count check": "migration z between -2 and 2; enough cells", "migration relative to mock": 1.27, "nuclei per well, duplicate mean": 5465}

Additional results follow.
gene,reagent,migration robust z-score,migration class with cell-count check,migration relative to mock,"nuclei per well, duplicate mean"
CCDC144BP,1,0.15,migration z between -2 and 2; enough cells,0.92,5345
NODAL,1,-4.53 (active),migration z below -2; enough cells,-0.28,4152
ADGRV1,1,0.24,migration z between -2 and 2; enough cells,0.85,6868
PITX1,1,1.48,migration z between -2 and 2; enough cells,1.09,5536
FBXO32,1,1.4,migration z between -2 and 2; enough cells,1.08,5724
ARHGAP30,1,-0.19,migration z between -2 and 2; enough cells,0.84,7322
RPS16,1,-1.01,migration z between -2 and 2; enough cells,0.62,3774
OR5AC2,1,-0.5,migration z between -2 and 2; enough cells,0.76,7531
OGFRL1,1,0.54,migration z between -2 and 2; enough cells,1.02,5376
CLCN3,1,0.64,migration z between -2 and 2; enough cells,0.93,6514
GRIA1,1,1.85,migration z between -2 and 2; enough cells,1.16,6533
C22orf39,1,-1.88,migration z between -2 and 2; enough cells,0.4,4238
RBPMS2,1,0.32,migration z between -2 and 2; enough cells,0.97,6172
SLC6A7,1,0.5,migration z between -2 and 2; enough cells,0.9,5374
OR4F4,1,0.84,migration z between -2 and 2; enough cells,1.1,7234
OR1N2,1,0.6,migration z between -2 and 2; enough cells,1.04,5255
P2RX7,1,0.96,migration z between -2 and 2; enough cells,0.99,5128
TIA1,1,0.74,migration z between -2 and 2; enough cells,1.08,6046
XKR5,1,-0.82,migration z between -2 and 2; enough cells,0.68,6340
